Values quoted from earlier work, collected in US20020016372A1, “Method for preventing and treating alzheimer's disease and brain damage associated with cardiov ascular disease and head injury” (priority 2000, published 2002).
At least one structure is not confirmed: it was looked up by name or label, or the drawing left a doubt.

What was measured:
brain sulfotransferase = conditions: mice, in vivo
Tau = conditions: neuroblastoma cells

Question: For `CC1=CC(=O)c2ccccc2C1=O` [menadione, 2-methylnaphthoquinone], which brain sulfotransferase activity (brain sulfotransferase) is on record?
Answer: increased

Question: And the “dephosphorylation of Tau” value (Tau)?
Answer: induces dephosphorylation of Tau
